The results in this text go back to ChEMBL document CHEMBL1141379, “Selective inhibitory activity against MAO and molecular modeling studies of 2-thiazolylhydrazone derivatives” (J Med Chem, 2007).

For the test, the target named is T1, Amine oxidase [flavin-containing] A (Bos taurus, UniProt P21398).
T1 sequence (P21398 whole entry): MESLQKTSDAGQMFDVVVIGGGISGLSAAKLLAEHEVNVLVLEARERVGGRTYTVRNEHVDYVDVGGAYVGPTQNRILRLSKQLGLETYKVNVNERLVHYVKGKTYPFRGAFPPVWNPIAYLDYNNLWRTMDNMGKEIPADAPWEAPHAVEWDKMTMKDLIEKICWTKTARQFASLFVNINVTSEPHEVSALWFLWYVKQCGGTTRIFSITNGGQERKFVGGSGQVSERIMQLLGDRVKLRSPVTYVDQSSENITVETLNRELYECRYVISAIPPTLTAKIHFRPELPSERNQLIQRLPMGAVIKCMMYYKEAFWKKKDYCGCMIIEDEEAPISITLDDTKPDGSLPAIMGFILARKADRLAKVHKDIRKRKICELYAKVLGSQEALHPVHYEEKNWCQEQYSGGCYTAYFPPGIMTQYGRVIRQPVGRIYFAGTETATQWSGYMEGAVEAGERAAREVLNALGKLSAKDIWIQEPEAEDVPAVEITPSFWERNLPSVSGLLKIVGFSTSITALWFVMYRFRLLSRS
Briefly: Inhibition of bovine brain mitochondria MAOA.

`CC1CCCC/C1=N\Nc1nc(-c2ccccc2)cs1` (stereo unspecified): the affinity corresponds to a Ki of 40.7 nM.

For orientation: Ki means a measure of affinity in units of concentration, obtained from inhibition or displacement. The low end stands for higher affinity, the high end for lower affinity.
